# Measured values taken from patent publication US12419952B2, “Saponin conjugate and vaccine or pharmaceutical composition comprising the same” (priority 2019, dated 2025).
# Some results were stated once for a whole list of compounds, not compound by compound.
# Test system: cellular immunity to PEK antigen
# Experiment: Immunological evaluation of saponins in the PEK mouse-vaccination model (overall conclusion)
# Assay type: in vivo, C57BL/6 mice
# Conditions: vaccination with PEK; overall immunological analysis
row,Compound,saponins-based adjuvant activity to develop cellular immunity to the host
1,"CCCCCCNC(=O)C1O[C@@H](O[C@H]2CCC3(C)C(CCC4(C)C3CC=C3C5CC(C)(C)CC[C@]5(C(=O)O[C@@H]5OC(C)[C@H](O)C(O)C5O[C@@H]5OC(C)[C@H](O[C@@H]6OC[C@@H](O)C(O)C6O)C(O)C5O)C(O)CC34C)C2(C)C=O)C(O)C(O)[C@@H]1O (stereo partly drawn) [Compound 48, 3-O—(N-(Hexyl)-β-D-glucopyranosyluronamide)-28-O-(β-D-xylopyranoyl-(1→4)-α-L-rhamnopyranosyl-(1→2)-β-D-fucopyranosyl) quillaic ester]",potent saponins-based adjuvant
2,"CC1O[C@@H](OC(=O)[C@]23CCC(C)(C)CC2C2=CCC4C5(C)CC[C@H](O[C@@H]6OC(C(=O)NCCCCCCCCCCCCCCCCc7ccc(Oc8ccccc8)cc7)[C@@H](O)C(O)C6O)C(C)(C=O)C5CCC4(C)C2(C)CC3O)C(O[C@@H]2OC(C)[C@H](O[C@@H]3OC[C@@H](O)C(O)C3O)C(O)C2O)C(O)[C@H]1O (stereo partly drawn) [Compound 59, 3-O—(N-(16-(4-phenoxyphen-1-yl)hexadecyl)-β-D-glucopyranosyluronamide)-28-O-(β-D-xylopyranosyl-(1→4)-α-L-rhamnopyranosyl-(1→2)-β-D-fucopyranosyl) quillaic ester.]",potent saponins-based adjuvant
3,"CC1O[C@@H](OC(=O)[C@]23CCC(C)(C)CC2C2=CCC4C5(C)CC[C@H](O[C@@H]6OC(C(=O)NCCCCCCCCc7ccc(O)cc7)[C@@H](O)C(O)C6O)C(C)(C=O)C5CCC4(C)C2(C)CC3O)C(O[C@@H]2OC(C)[C@H](O[C@@H]3OC[C@@H](O)C(O)C3O)C(O)C2O)C(O)[C@H]1O (stereo partly drawn) [Compound 61, 3-O—(N-(8-(4-Hydroxyphen-1-yl)octyl)-β-D-glucopyranosyluronamide)-28-O-(β-D-xylopyranosyl-(1-4)-α-L-rhamnopyranosyl-(1-2)-β-D-fucopyranosyl) quillaic ester]",potent saponins-based adjuvant
4,"CC1O[C@@H](OC(=O)[C@]23CCC(C)(C)CC2C2=CCC4C5(C)CC[C@H](O[C@@H]6OC(C(=O)NCCCCCCCCc7ccc(Oc8ccc(F)cc8)cc7)[C@@H](O)C(O)C6O)C(C)(C=O)C5CCC4(C)C2(C)CC3O)C(O[C@@H]2OC(C)[C@H](O[C@@H]3OC[C@@H](O)C(O)C3O)C(O)C2O)C(O)[C@H]1O (stereo partly drawn) [Compound 60, 3-O—(N-(8-(4-(4-Fluorophenoxy)phen-1-yl)octyl)-β-D-glucopyranosyluronamide)-28-O-(β-D-xylopyranosyl-(1→4)-α-D-rhamnopyranosyl-(1→2)-β-D-fucopyranosyl) quillaic ester]",potent saponins-based adjuvant
5,"CC1O[C@@H](OC(=O)[C@]23CCC(C)(C)CC2C2=CCC4C5(C)CC[C@H](O[C@@H]6OC(C(=O)NCCCCCCCCc7ccco7)[C@@H](O)C(O)C6O)C(C)(C=O)C5CCC4(C)[C@]2(C)CC3O)C(O[C@@H]2OC(C)[C@H](O[C@@H]3OC[C@@H](O)C(O)C3O)C(O)C2O)C(O)[C@H]1O (stereo partly drawn) [Compound 66, 3-O—(N-(8-(furan-2-yl)octyl)-β-D-glucopyranosyluronamide)-28-O-(β-D-xylopyranosyl-(1→4)-α-L-rhamnopyranosyl-(1→2)-β-D-fucopyranosyl) quillaic ester]",potent saponins-based adjuvant
6,"CC1O[C@@H](OC(=O)[C@]23CCC(C)(C)CC2C2=CCC4C5(C)CC[C@H](O[C@@H]6OC(C(=O)NCCCCCCCCc7ccc(Oc8ccccc8)cc7)[C@@H](O)C(O[C@@H]7OC[C@@H](O)C(O)C7O)C6O[C@@H]6OC(CO)[C@H](O)C(O)C6O)C(C)(C=O)C5CCC4(C)[C@]2(C)CC3O)C(O[C@@H]2OC(C)[C@H](O[C@@H]3OC[C@@H](O)C(O)C3O)C(O)C2O)C(O)[C@H]1O (stereo partly drawn) [Compound 95, 3-O—{β-D-galactopyranosyl-(1→2)-[β-D-xylopyranosyl-(1→3)]-[N-(8-(4-phenoxyphenyl)octyl)-β-D-glucuropyranosyluroamide]}-28-O-[β-D-xylopyranosyl-(1→4)-α-L-rhamnopyranosyl-(1→2)-β-D-fucopyranosyl]quillaic ester]",potent saponins-based adjuvant
